This data set can be described thus: Acute oral toxicity in mice (24 Hr. mortality). The note with it: mouse, in vivo.

Each structure is given as a SMILES string.

Our source for the LD50 values is patent US4218477A, “Primary aminoacylanilides, methods of making the same and use as antiarrhythmic drugs” (priority 1976, dated 1980).

A word on the LD50: it is the dose at which mortality reaches 50%. High values mean lower toxicity, low ones greater toxicity.

In turn, `CCN(CC)CC(=O)Nc1c(C)cccc1C` [Lidocaine, 2-diethylamino-2',6'-acetoxylidide] yielded an LD50 at 24 h of 224 mg/kg.
